# Test results: patent publication US20210277146A1 (BEIJING DONGFANG BIOTECH, published 2021)
# Sequences of proteins named here, by UniProt entry; tags and fusion partners are left off. Residues count along the entry.
# UniProt Q8NBP7, residues 31-692: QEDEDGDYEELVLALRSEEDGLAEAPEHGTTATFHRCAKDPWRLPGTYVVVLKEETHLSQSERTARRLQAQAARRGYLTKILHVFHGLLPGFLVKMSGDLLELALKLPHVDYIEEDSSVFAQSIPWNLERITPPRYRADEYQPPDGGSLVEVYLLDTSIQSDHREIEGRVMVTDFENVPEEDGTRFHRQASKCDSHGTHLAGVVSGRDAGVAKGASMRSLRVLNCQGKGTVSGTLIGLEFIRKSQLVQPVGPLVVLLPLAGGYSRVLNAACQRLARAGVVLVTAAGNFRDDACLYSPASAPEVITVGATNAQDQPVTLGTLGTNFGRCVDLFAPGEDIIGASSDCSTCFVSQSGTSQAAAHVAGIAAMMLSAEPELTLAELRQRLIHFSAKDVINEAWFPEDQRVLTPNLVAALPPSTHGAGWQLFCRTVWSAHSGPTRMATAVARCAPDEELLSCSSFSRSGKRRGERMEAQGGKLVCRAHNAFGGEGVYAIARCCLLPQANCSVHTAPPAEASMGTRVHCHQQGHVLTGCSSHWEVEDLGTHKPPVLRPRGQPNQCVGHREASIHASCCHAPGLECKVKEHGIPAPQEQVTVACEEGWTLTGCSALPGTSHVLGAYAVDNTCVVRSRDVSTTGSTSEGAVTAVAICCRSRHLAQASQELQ
# Numbering of substitutions follows the chain as printed. Results are given in words; binding and its absence hold for the method and conditions named. Some entries that bind do so weakly or less than the wild type.
# B1: DFSK9-1 complete antibody (antibody, V domains shown)
# VH: QVQLVQSGAEVKRPGASVKVSCKASGGTFTNNAISWVRQAPGQGLEWMGRIIPMFGMANYAQKLQGRGTMTTDPSTSTAYMELRSLRSDDTAVYYCAREGIPMIWGQGTTVTVSS
# VL: DIQMTQSPSSLSASVGDRVTITCRASQSIDNRLTWYQQKPGKAPKLLIYDASSRQSGVPSRFSGSGSGTDFTLTISSLQPEDFATYYCQQPENDPTTFGQGTKVEIK
# B2: DFSK9-12 complete antibody (antibody, V domains shown)
# VH: QVQLVQSGAEVKKPGASVKVSCKASGYTVTSYGISWVRQAPGQGLEWMGWLSFYNGNTNYAQKLQGRGTMTTDPSTSTAYMELRSLRSDDTAVYYCARGYSLDVWGQGTTVTVSS
# VL: DIQMTQSPSSLSASVGDRVTITCRASQSVRNWLDWYQQKPGKAPKLLIYGASTLESGVPSRFSGSGSGTDFTLTISSLQPEDFATYYCQQDNDIPLTFGQGTKVEIK
# B3: DFSK9-13 complete antibody (antibody, V domains shown)
# VH: B2 VH with T28S, V29L, L51V, N55Q, S101G, L102M, D103T
# VL: B2 VL with S28D, R30D, N31S, D34T, T53N, E55A, N92S, D93K
# B4: DFSK9-17 complete antibody (antibody, V domains shown)
# VH: B2 VH with L51V, T58S
# VL: DIQMTQSPSSLSASVGDRVTITCRASQNINNWLNWYQQKPGKAPKLLIYGASTRPTGVPSRFSGSGSGTDFTLTISSLQPEDFATYYCQQWDDTPNTFGQGTKVEIK
# What was measured:
# [1] = target: T1, PCSK9-His (UniProt Q8NBP7 31-692); test: ELISA, PCSK9-His coated, complete antibody titrated, anti-human IgG-HRP
# T1 construct: also called antigen PCSK9-His; Proprotein Convertase Subtilisin/Kexin Type 9; not shown: His tag
# Protocol: Coating PCSK9-His (300 ng/well/100 μl) by 0.01M PBS buffer at pH 7.2 overnight at 4° C., washing three times with PBST (1‰ Tween 20) of 300 μl/well, further adding PBST-4% milk, and blocking for one hour at 37° C.; adding complete antibodies DFSK9-1, DFSK9-12, DFSK9-13, DFSK9-14, DFSK9-15, DFSK9-16, DFSK9-17, DFSK9-18, DFSK9-19, DFSK9-20 and DFSK9-21 of different dilution degrees; the highest concentration of the 11 complete antibodies is 50 μg/ml, diluting at a five-time gradient, diluting for eight gradients for each complete antibody, and incubating for one hour at 37° C.; washing 5 times with PBST of 300 μl/well, further adding a goat-anti-human IgG-HRP secondary antibody diluted by PBST-4% milk at a ratio of 1:5000, and incubating for one hour at 37° C.; washing 5 times with PBST of 300 μl/well, developing by using a Tetramethylbenzidine (TMB) developing kit (100 μl/well), developing for 10 minutes at a room temperature, and terminating developing with 2M H₂SO₄ (50 μl/well); reading numbers by using a microplate reader at wavelengths of 450 nm and 630 nm; analyzing data and drawing pictures by using software GraphPad Prism 5Demo, and results are shown in FIG. 8 and table 2.
# [2] = target: PCSK9 (UniProt Q8NBP7 31-692, limits assumed); test: SPR BIAcore X100, antibody captured by goat anti-human IgG on CM5, PCSK9 as analyte
Binder,binding [1],binding [2]
B1,binds,binds
B2,binds,binds
B3,binds,binds
B4,binds,binds
